{"source": "PubChem BioAssay AID504786 (Drosophila RNAi Screening Center, 2011)", "assay": "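Knock-downs reducing HIF reporter induction by the iron chelator DFO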 (primary screen)", "system": "Drosophila S2 cells with a stable HIF luciferase reporter", "reagents": "long dsRNA against Drosophila genes, about 0.2 µg dsRNA per well of a 384-well plate", "duration": "three days of knock-down, then 20 h of DFO before reading", "conditions": "desferrioxamine (DFO) at 100 µM, an iron chelator that mimics hypoxia, for 20 h", "read-out": "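HIF reporter luminescence in cells given 100 µM DFO for 20 h, using the mouse ldh-a hypoxia-response element, scored as per-plate z-scores; higher means greater loss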", "scale": "z-score: higher = stronger loss of HIF reporter signal", "note": "The screen tested about 21,000 reagents; shown is a random part of those with a known target gene and a result. 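Primary screen; positive scores mean lost reporter signal, so the sign may be inverted from the usual convention.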 Reagents against one gene are numbered here. Names joined by + are all predicted targets of the reagent."}
{"gene": "Pgi", "dsRNA no.": 1, "z-score, replicate 1": -0.3, "z-score, replicate 2": 0}
{"gene": "lncRNA:CR32657", "dsRNA no.": 1, "z-score, replicate 1": -0.2, "z-score, replicate 2": -0.4}
{"gene": "mthl8", "dsRNA no.": 1, "z-score, replicate 1": 0, "z-score, replicate 2": -0.1}
{"gene": "mthl8", "dsRNA no.": 2, "z-score, replicate 1": -0.4, "z-score, replicate 2": -0.2}
{"gene": "CG32425", "dsRNA no.": 1, "z-score, replicate 1": 1.4, "z-score, replicate 2": 1}
{"gene": "CG32425", "dsRNA no.": 2, "z-score, replicate 1": -0.3, "z-score, replicate 2": -0.7}
{"gene": "CG11504", "dsRNA no.": 1, "z-score, replicate 1": -0.3, "z-score, replicate 2": -0.2}
{"gene": "CG33061", "dsRNA no.": 1, "z-score, replicate 1": -0.2, "z-score, replicate 2": -0.6}
{"gene": "CG14298", "dsRNA no.": 1, "z-score, replicate 1": -0.9, "z-score, replicate 2": 0.1}
{"gene": "Dred", "dsRNA no.": 1, "z-score, replicate 1": -0.2, "z-score, replicate 2": 0}
{"gene": "Dred", "dsRNA no.": 2, "z-score, replicate 1": -0.7, "z-score, replicate 2": -0.2}
{"gene": "Uch-L5", "dsRNA no.": 1, "z-score, replicate 1": -0.3, "z-score, replicate 2": -0.3}
{"gene": "Cpr66Cb", "dsRNA no.": 1, "z-score, replicate 1": -0.1, "z-score, replicate 2": -0.1}
{"gene": "CG9132", "dsRNA no.": 1, "z-score, replicate 1": -0.1, "z-score, replicate 2": -0.4}
{"gene": "CG42580", "dsRNA no.": 1, "z-score, replicate 1": -0.3, "z-score, replicate 2": -0.4}
{"gene": "cnn", "dsRNA no.": 1, "z-score, replicate 1": -0.2, "z-score, replicate 2": -0.2}
{"gene": "cnn", "dsRNA no.": 2, "z-score, replicate 1": -0.4, "z-score, replicate 2": -0.4}
{"gene": "lbl", "dsRNA no.": 1, "z-score, replicate 1": 0.5, "z-score, replicate 2": -0.1}
{"gene": "CG5681", "dsRNA no.": 1, "z-score, replicate 1": -0.2, "z-score, replicate 2": -0.5}
{"gene": "Pomp", "dsRNA no.": 1, "z-score, replicate 1": 9.5, "z-score, replicate 2": 6.7}
{"gene": "numb", "dsRNA no.": 1, "z-score, replicate 1": -0.3, "z-score, replicate 2": -0.3}
{"gene": "Sc2", "dsRNA no.": 1, "z-score, replicate 1": -0.3, "z-score, replicate 2": -0.4}
{"gene": "CG8834", "dsRNA no.": 1, "z-score, replicate 1": -0.2, "z-score, replicate 2": -0.1}
{"gene": "CG10934", "dsRNA no.": 1, "z-score, replicate 1": -0.3, "z-score, replicate 2": -0.1}
{"gene": "Zw10", "dsRNA no.": 1, "z-score, replicate 1": -0.4, "z-score, replicate 2": -0.5}
{"gene": "Cubn", "dsRNA no.": 1, "z-score, replicate 1": -0.2, "z-score, replicate 2": -0.1}
{"gene": "CG6923", "dsRNA no.": 1, "z-score, replicate 1": -0.2, "z-score, replicate 2": -0.4}
{"gene": "CG4467", "dsRNA no.": 1, "z-score, replicate 1": -0.4, "z-score, replicate 2": 0.2}
{"gene": "CG14835", "dsRNA no.": 1, "z-score, replicate 1": -0.3, "z-score, replicate 2": -0.4}
{"gene": "Drsl6", "dsRNA no.": 1, "z-score, replicate 1": -0.3, "z-score, replicate 2": -0.8}
{"gene": "CG15506", "dsRNA no.": 1, "z-score, replicate 1": 0, "z-score, replicate 2": -0.3}
{"gene": "lectin-21Ca", "dsRNA no.": 1, "z-score, replicate 1": 0, "z-score, replicate 2": -0.2}
{"gene": "CG2901", "dsRNA no.": 1, "z-score, replicate 1": -0.2, "z-score, replicate 2": 0.2}

Continued (6 carried over from the part before).
{"gene": "CG4467", "dsRNA no.": 1, "z-score, replicate 1": -0.4, "z-score, replicate 2": 0.2}
{"gene": "CG14835", "dsRNA no.": 1, "z-score, replicate 1": -0.3, "z-score, replicate 2": -0.4}
{"gene": "Drsl6", "dsRNA no.": 1, "z-score, replicate 1": -0.3, "z-score, replicate 2": -0.8}
{"gene": "CG15506", "dsRNA no.": 1, "z-score, replicate 1": 0, "z-score, replicate 2": -0.3}
{"gene": "lectin-21Ca", "dsRNA no.": 1, "z-score, replicate 1": 0, "z-score, replicate 2": -0.2}
{"gene": "CG2901", "dsRNA no.": 1, "z-score, replicate 1": -0.2, "z-score, replicate 2": 0.2}
{"gene": "CG6415", "dsRNA no.": 1, "z-score, replicate 1": -0.3, "z-score, replicate 2": 0.4}
{"gene": "ND-20", "dsRNA no.": 1, "z-score, replicate 1": -0.2, "z-score, replicate 2": -0.7}
{"gene": "TRAM", "dsRNA no.": 1, "z-score, replicate 1": -0.2, "z-score, replicate 2": -0.3}
{"gene": "TRAM", "dsRNA no.": 2, "z-score, replicate 1": -0.1, "z-score, replicate 2": 0}
{"gene": "Hen1", "dsRNA no.": 1, "z-score, replicate 1": -0.2, "z-score, replicate 2": -0.1}
{"gene": "Hen1", "dsRNA no.": 2, "z-score, replicate 1": -0.1, "z-score, replicate 2": 0.4}
{"gene": "tbc", "dsRNA no.": 1, "z-score, replicate 1": -0.2, "z-score, replicate 2": 0.1}
{"gene": "fd3F (retired record) + Crg-1", "dsRNA no.": 1, "z-score, replicate 1": -0.2, "z-score, replicate 2": -0.5}
{"gene": "Acox3", "dsRNA no.": 1, "z-score, replicate 1": -0.4, "z-score, replicate 2": -0.9}
{"gene": "CG13579", "dsRNA no.": 1, "z-score, replicate 1": -0.3, "z-score, replicate 2": -0.1}
{"gene": "barr", "dsRNA no.": 1, "z-score, replicate 1": 0.5, "z-score, replicate 2": 1.7}
{"gene": "danr", "dsRNA no.": 1, "z-score, replicate 1": -0.4, "z-score, replicate 2": -0.4}
{"gene": "fu", "dsRNA no.": 1, "z-score, replicate 1": 0, "z-score, replicate 2": 2.1}
{"gene": "Pabp2", "dsRNA no.": 1, "z-score, replicate 1": 4.4, "z-score, replicate 2": 2.5}
{"gene": "frma", "dsRNA no.": 1, "z-score, replicate 1": -0.3, "z-score, replicate 2": -0.1}
{"gene": "CG14185", "dsRNA no.": 1, "z-score, replicate 1": -0.2, "z-score, replicate 2": -0.3}
{"gene": "Dgp-1", "dsRNA no.": 1, "z-score, replicate 1": -0.3, "z-score, replicate 2": -0.5}
{"gene": "CG14000", "dsRNA no.": 1, "z-score, replicate 1": -0.3, "z-score, replicate 2": 0}
